In the odorant receptor screen of Mainland et al. (2015):
“And” between values parts separate entries of the source, which are not always exact repeats. Equal entries are not always repeated. The list shows a part of the results. Single wells; the ratio to wells without odorant was worked out here, and repeats agree poorly.

These compounds were tested on OR6C74 clone 1441 (assay: odorant receptor activation (CRE luciferase / Renilla) (fold of no-odor wells); higher = more activation). Details: 100 µM.
For `COC(=O)c1ccccc1` [methyl benzoate], the odorant receptor activation was 1.03. `CCCCCOC(C)=O` [n-amyl acetate] gave an odorant receptor activation of 0.965. With `CC1COCc2cc3c(cc21)C(C)(C)C(C)C3(C)C` (configuration not stated) [galaxolide] the odorant receptor activation was 2.95. With `C=CCc1ccc(OC(C)=O)c(OC)c1` [eugenol acetate] the odorant receptor activation was 1.52. Work on `CC12CCC(CC1)C(C)(C)O2` [cineole] yielded an odorant receptor activation of 0.138. With `CCCC(=O)O` [butyric acid] the odorant receptor activation was 0.131. In the case of `CCCCCC(C)=O` [2-heptanone], the odorant receptor activation is reported as 1.24. For `CC(C)(C)c1ccc(CCC=O)cc1` [bourgeonal], the odorant receptor activation was 0.117. Work on `CC(=O)OC1CC2CCC1(C)C2(C)C` (configuration not stated) [isobornyl acetate] yielded an odorant receptor activation of 0.815. `CCCCO` [1-butanol] showed an odorant receptor activation of 0.938. For `CC(=O)c1ccccc1` [acetophenone], the odorant receptor activation was 1.33. For `COc1ccccc1O` [guaiacol], the odorant receptor activation was 0.75. `O=CCc1ccccc1` [phenyl acetaldehyde] gave an odorant receptor activation of 1.58. `CC12C=CCC1C1CCC3CC(=O)CCC3(C)C1CC2` (configuration not stated) [androstenone] showed an odorant receptor activation of 1.33. With `C=C(C)C1CC=C(C)C(=O)C1` (configuration not stated) [r-carvone] the odorant receptor activation was 1.06. For `CCCCCCC=O` [heptaldehyde], the odorant receptor activation was 1.23 and 0.73. In the case of `C=C(C)C1CC=CCC1` (configuration not stated) [r-limonene], the odorant receptor activation is reported as 1.38 and 1.19. With `COC(=O)c1ccccc1O` [methyl salicylate] the odorant receptor activation was 1.01. With `CCCCCCCCOC(C)=O` [octyl acetate] the odorant receptor activation was 0.835. Compound `CCC1(O)C2(C)CCC(C2)C1(C)C` (configuration not stated) [2-ethylfenchol] has an odorant receptor activation of 0.71. `CC(C)=CCCC(C)=CC=O` [citral] gave an odorant receptor activation of 0.162. `CC1=NC(C)SC1C` (configuration not stated) was tested, and the odorant receptor activation was 1.35.
